Where a name gives a salt, the structure may show the parent alone. The list shows a part of the results. Hit calls seldom repeat between salt and free forms of one compound.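 In K562 cells expressing nanoluciferase-fused kinases, luminescence was recorded at 4 h intervals between 2 and 18 h, normalized as percent of control with DMSO at 100% and a positive control at 0%. A significant (2 sigma) signal drop marks a time point as decreased. The authors' rule for a hit is not shown and takes in more than the number of time points.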
What was measured:
Assay in all cases: number of time points (of 5) at which kinase-Nluc abundance scored as decreased, DMSO-normalised (count); higher = more persistent destabilization
Conditions in all cases: K562; 2-18 h
[1] = target: CAMK2A (UniProt Q9UQM7)
[2] = target: CAMK2G (UniProt Q13555)
[3] = target: CDK10 (UniProt Q15131)
[4] = target: CDK3 (UniProt Q00526)
[5] = target: CDK5 (UniProt Q00535)
[6] = target: CDK6 (UniProt Q00534)
[7] = target: CHEK2 (UniProt O96017)
[8] = target: CSF1R (UniProt P07333)
[9] = target: CSK (UniProt P41240)
[10] = target: CSNK1A1 (UniProt P48729)
[11] = target: CSNK1D (UniProt P48730)
[12] = target: DDR1 (UniProt Q08345)
[13] = target: DYRK1B (UniProt Q9Y463)
[14] = target: DYRK2 (UniProt Q92630)
[15] = target: EGFR (UniProt P00533)
[16] = target: EGFR_G719S (UniProt P00533)
[17] = target: EGFR_G719S_T790M (UniProt P00533)
[18] = target: EGFR_L718V (UniProt P00533)
[19] = target: EGFR_L858R (UniProt P00533)
[20] = target: CDK2 (UniProt P24941)

Protein sequences, listed by entry. Tags and fused reporters are not part of them. Lines headed by an entry give the natural chain unless they say otherwise; changes in a name come on top.
UniProt Q9UQM7, whole entry: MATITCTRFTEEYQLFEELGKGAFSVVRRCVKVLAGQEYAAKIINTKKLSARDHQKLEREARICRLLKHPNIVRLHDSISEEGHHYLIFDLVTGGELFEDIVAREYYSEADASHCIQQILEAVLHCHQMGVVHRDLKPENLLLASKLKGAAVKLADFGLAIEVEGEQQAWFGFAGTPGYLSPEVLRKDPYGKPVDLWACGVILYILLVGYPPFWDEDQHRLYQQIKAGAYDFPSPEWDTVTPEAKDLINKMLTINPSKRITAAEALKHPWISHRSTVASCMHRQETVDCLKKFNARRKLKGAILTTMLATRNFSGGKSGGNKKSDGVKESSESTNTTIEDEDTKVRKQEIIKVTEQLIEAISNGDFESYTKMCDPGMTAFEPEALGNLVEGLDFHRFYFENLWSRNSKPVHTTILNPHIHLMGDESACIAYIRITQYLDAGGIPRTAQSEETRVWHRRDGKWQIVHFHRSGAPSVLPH
UniProt Q15131: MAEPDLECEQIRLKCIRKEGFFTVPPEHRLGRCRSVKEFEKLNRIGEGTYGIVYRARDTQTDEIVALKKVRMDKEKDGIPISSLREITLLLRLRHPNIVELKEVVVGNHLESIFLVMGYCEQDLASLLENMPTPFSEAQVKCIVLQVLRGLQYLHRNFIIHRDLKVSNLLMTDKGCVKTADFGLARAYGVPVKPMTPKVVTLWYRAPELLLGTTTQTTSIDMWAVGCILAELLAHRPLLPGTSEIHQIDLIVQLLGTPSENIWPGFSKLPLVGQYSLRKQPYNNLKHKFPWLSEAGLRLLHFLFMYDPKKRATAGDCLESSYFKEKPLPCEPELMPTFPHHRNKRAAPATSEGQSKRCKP
UniProt Q00526: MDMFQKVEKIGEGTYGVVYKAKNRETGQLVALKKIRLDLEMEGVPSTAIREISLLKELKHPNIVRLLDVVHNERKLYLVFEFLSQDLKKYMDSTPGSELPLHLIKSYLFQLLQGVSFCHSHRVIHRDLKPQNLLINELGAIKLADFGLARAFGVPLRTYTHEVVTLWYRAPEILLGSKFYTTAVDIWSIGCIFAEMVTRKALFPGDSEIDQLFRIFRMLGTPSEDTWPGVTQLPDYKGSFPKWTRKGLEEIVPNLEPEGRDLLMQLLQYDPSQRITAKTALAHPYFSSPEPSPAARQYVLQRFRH
UniProt Q00534, whole entry: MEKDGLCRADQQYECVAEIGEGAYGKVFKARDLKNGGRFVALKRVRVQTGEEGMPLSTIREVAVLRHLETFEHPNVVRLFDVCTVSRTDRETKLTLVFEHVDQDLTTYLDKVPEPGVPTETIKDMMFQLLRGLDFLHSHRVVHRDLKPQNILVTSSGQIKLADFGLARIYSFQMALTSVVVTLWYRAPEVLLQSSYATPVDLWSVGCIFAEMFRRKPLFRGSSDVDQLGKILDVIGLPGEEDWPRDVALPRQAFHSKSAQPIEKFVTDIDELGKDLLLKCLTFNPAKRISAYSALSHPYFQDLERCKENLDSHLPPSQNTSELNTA
UniProt O96017, whole entry: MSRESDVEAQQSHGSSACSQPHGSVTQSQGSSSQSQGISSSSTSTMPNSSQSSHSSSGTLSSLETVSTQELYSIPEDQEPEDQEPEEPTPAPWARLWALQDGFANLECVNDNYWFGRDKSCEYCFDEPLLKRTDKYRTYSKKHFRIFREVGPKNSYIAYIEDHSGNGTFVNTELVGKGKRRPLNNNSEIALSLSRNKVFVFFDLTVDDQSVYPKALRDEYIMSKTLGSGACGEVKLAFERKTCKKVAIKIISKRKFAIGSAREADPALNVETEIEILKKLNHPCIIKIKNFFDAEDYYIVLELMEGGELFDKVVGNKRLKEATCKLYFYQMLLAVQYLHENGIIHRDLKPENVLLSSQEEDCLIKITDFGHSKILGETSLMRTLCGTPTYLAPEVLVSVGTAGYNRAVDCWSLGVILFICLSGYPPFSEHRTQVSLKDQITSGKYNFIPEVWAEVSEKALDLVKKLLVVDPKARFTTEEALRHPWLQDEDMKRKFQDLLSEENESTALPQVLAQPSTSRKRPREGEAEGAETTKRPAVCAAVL
UniProt P07333, whole entry: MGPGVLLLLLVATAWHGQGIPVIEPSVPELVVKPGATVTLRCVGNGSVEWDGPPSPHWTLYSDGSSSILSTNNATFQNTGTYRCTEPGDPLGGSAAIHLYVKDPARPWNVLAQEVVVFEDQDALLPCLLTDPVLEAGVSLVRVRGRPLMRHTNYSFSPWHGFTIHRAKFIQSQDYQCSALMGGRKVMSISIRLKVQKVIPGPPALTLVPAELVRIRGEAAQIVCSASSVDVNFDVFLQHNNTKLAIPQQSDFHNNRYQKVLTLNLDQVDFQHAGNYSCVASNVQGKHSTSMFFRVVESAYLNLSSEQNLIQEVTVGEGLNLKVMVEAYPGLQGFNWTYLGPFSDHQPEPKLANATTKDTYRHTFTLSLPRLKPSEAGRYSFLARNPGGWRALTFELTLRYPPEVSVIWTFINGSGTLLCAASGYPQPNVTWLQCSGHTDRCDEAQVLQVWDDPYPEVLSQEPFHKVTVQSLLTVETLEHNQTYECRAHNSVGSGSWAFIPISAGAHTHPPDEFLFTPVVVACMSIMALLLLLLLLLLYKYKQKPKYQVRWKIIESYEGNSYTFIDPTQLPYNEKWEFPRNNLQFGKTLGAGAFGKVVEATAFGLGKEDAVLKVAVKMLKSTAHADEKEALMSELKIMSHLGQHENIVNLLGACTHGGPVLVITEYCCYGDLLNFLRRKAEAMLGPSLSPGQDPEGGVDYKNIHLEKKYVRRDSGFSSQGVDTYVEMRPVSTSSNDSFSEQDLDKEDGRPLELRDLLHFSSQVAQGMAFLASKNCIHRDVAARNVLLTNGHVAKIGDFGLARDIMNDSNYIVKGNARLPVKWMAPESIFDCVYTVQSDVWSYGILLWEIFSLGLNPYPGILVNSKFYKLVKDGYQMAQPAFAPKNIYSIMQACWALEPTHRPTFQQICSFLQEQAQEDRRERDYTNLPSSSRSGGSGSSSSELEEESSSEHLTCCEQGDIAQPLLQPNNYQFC
UniProt P41240: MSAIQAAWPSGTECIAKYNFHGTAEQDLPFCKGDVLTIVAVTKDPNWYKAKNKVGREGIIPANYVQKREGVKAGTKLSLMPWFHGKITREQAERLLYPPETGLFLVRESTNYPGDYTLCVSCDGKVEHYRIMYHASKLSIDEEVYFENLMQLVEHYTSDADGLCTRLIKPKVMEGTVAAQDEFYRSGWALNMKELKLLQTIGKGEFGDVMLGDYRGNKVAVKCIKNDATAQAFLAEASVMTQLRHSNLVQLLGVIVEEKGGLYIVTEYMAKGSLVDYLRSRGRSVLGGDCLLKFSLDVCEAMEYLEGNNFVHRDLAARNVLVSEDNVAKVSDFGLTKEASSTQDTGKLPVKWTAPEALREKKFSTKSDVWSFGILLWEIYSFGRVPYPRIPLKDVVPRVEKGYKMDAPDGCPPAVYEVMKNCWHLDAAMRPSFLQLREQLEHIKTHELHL
UniProt P48729: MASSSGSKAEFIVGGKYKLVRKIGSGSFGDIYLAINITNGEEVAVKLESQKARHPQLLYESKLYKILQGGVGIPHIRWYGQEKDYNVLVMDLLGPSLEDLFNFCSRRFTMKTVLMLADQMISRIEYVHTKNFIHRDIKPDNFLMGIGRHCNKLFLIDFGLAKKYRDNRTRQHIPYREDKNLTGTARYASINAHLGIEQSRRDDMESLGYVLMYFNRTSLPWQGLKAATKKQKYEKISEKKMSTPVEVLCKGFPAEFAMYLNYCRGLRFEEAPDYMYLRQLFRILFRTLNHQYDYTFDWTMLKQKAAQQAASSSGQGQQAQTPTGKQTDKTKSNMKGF
UniProt P48730: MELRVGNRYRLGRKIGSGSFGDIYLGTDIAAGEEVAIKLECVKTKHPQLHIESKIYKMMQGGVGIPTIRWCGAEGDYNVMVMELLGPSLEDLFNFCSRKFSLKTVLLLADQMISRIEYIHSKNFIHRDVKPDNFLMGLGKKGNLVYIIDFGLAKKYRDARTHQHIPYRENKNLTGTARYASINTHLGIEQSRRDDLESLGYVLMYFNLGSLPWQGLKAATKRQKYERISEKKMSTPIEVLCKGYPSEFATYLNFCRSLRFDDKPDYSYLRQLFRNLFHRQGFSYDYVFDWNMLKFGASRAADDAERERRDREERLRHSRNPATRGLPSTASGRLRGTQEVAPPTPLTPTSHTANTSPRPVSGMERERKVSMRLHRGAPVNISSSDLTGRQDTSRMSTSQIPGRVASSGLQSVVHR
UniProt Q08345: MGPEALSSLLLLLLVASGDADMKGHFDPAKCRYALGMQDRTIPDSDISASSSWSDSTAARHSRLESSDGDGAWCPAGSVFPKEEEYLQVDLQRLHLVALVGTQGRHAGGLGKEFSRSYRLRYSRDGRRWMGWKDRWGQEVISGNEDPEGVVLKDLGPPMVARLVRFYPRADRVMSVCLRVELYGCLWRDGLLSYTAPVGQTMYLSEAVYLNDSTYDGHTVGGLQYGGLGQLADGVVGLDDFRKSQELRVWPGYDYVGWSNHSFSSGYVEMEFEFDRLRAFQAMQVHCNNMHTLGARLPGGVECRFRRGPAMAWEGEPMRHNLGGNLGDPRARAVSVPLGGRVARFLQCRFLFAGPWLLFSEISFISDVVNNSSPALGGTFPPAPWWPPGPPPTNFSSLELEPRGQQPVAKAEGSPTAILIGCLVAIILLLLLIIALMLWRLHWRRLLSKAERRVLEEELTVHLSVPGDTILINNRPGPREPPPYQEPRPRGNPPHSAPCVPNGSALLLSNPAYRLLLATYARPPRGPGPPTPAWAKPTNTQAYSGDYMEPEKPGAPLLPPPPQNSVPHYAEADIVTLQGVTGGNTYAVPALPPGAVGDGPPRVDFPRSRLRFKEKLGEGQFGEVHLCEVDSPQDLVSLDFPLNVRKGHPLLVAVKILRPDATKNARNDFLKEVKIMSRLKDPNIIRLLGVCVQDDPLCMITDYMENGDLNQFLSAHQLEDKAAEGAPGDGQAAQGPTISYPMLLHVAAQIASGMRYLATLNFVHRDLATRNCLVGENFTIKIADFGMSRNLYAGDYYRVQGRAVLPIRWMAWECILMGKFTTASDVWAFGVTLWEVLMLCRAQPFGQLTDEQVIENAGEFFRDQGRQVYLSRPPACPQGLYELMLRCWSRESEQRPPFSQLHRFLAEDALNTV
UniProt Q9Y463, whole entry, looked up: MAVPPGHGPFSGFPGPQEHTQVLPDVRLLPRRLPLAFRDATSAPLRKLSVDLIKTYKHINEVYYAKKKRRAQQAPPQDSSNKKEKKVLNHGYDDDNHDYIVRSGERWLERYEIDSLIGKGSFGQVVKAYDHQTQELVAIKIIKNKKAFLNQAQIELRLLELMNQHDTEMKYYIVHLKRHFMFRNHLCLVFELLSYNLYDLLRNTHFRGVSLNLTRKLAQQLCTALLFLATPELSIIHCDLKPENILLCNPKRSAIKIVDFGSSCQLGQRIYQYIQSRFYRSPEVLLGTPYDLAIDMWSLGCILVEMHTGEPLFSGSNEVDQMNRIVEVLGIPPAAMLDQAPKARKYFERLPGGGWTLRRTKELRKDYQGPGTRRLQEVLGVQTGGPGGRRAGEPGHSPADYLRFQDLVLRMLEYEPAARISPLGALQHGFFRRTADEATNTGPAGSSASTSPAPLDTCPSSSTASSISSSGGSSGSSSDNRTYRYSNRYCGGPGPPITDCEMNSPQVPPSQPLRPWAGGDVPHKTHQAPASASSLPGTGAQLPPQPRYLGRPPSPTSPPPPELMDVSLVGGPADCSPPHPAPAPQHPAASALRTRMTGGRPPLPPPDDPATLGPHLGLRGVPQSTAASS
UniProt Q92630: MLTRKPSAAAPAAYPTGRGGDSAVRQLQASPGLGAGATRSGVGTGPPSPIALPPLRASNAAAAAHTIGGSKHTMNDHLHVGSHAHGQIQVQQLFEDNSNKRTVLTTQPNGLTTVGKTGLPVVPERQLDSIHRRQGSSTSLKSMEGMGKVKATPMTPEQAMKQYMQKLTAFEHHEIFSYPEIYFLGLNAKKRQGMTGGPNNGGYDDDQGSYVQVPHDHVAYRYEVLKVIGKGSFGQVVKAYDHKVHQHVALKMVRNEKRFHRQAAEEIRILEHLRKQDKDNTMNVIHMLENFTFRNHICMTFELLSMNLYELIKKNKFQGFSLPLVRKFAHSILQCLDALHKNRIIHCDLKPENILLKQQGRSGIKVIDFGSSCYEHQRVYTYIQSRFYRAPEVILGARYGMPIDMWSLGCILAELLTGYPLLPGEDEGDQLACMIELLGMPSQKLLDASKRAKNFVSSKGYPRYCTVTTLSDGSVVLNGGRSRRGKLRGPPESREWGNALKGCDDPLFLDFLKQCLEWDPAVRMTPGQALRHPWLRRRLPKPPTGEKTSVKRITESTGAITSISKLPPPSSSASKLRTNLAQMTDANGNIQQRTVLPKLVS

SMILES	number of time points [1]	number of time points [2]	number of time points [3]	number of time points [4]	number of time points [5]	number of time points [6]	number of time points [7]	number of time points [8]	number of time points [9]	number of time points [10]	number of time points [11]	number of time points [12]	number of time points [13]	number of time points [14]	number of time points [15]	number of time points [16]	number of time points [17]	number of time points [18]	number of time points [19]	number of time points [20]
CCN1CCN(Cc2ccc(Nc3ncc(F)c(-c4cc(F)c5nc(C)n(C(C)C)c5c4)n3)nc2)CC1 [Abemaciclib (methanesulfonate)] (10 µM)	0	0	0	0	0	0	0	0	0	0	0	0	0	2	0	0	3	0	0	
CCN1CCN(Cc2ccc(Nc3ncc(F)c(-c4cc(F)c5nc(C)n(C(C)C)c5c4)n3)nc2)CC1 [Abemaciclib] (2 µM)	0	0	0	0	0	0	0	0	0	0	0	0	0	0	0	0	0	0	0	
CC(=O)NC1CC(n2cnc(NC(=O)Cc3ccc4ccccc4c3)c2)C1 (stereo unspecified) (10 µM)	0	0	0	0	0	0	0	0	0	0	0	0	0	0	0	0	0	0	0	0
O=C(Nc1ccc(CN2CCOCC2)cc1)c1ccc(-c2cccc(Cl)c2)o1 (10 µM)	0	0	0	0	0	0	0	0	0	0	0	0	0	0	0	0	0	0	0	0
Cc1ccc2nc(NCCN)c3ncc(C)n3c2c1 (2.5 µM)	0	0	0	0	0	0	0	0	0	0	0	0	0	0	0	0	0	0	0	
CS(=O)(=O)Nc1cc(-c2ccc3ncnc(Nc4ccc(F)c(Cl)c4)c3c2)cnc1Cl (2.5 µM)	0	0	0	0	0	0	0	0	0	2	0	0	0	4	0	2	0	0	0	0
C[C@@H]1CCN(C(=O)CC#N)C[C@@H]1N(C)c1ncnc2[nH]ccc12 [Tofacitinib] (10 µM)	0	0	0	0	0	0	0	0	0	0		0	0	0						0
COc1cccc(OC)c1C(=O)OCc1cc(O)ccc1O[C@@H]1O[C@H](CO)[C@@H](O)[C@H](O)[C@H]1O [Curculigoside] (10 µM)	0	0	0	0	0	0	0	0	0	0	0	0	0	0	0	0	0	0	0	0
Cn1cc(-c2cnn3c(N)c(Br)c([C@@H]4CCCNC4)nc23)cn1 (2.5 µM)	0	0	0	0	0	0	0	1	0	0	0	0	0	0	0	0	2	1	1	1
c1cc(-c2c[nH]c3nccc(N4CCC[C@@]5(CCCCN5)C4)c23)ncn1 (10 µM)	0	0	0	0	0	0	0	0	0	0	0	0	0	0	0	0	0	0	0	0
CNC(=O)c1ccc(C)c(-n2c(C)cc(OCc3ccc(F)cc3F)c(Br)c2=O)c1 (10 µM)	0	0	0	0	0	0	0	0	0	0	0	0	0	0	0	0	0	0	0	0
O=C(NCCN1CCOCC1)c1cc2c(Oc3ccc(NC(=O)C4(C(=O)Nc5ccc(F)cc5)CC4)cc3)ccnc2[nH]1 [Tyrosine kinase inhibitor] (10 µM)	0	0	0	0	0	0	0	0	0	0	0	0	0	0	0	0	0	0	0	0
C[C@H](c1ccnc(Nc2nc3ccc(-c4cc(N(C)C)ncn4)cc3[nH]2)c1)N1CCN(C(=O)CC(F)(F)F)CC1 (2.5 µM)	0	0	0	0	0	0	0	0	0	0	0	0	0	0	0	0	0	0	0	0
CC(C)(O)CNc1ncc(-c2ccnc(Nc3ccnc(Cl)c3)n2)c(CC2CC2)n1 (2.5 µM)	0	0	0	0	0	0	0	0	0	0	0	0	0	1	0	0	0	0	0	0
COc1cc2nccc(Oc3ccc(NC(=O)NC4CC4)c(Cl)c3)c2cc1C(N)=O [Lenvatinib] (10 µM)	0	0	0	0	0	0	0	1	0	0	0	0	0	0	1	3	0	0	0	0
NS(=O)(=O)c1ccc(-n2nc(C(F)(F)F)cc2-c2ccc(Cl)cc2)cc1 (10 µM)	0	0	0	0	0	0	0	0	0	0	0	0	0	0	0	0	0	0	0	0
CN(CC(=O)N(Cc1ccc(C2CCCCC2)cc1)c1ccc(C(=O)NO)cc1)S(=O)(=O)c1c(F)c(F)c(F)c(F)c1F (2.5 µM)	0	0	0	0	0	0	0	0	0	0	0	0	0	0	0	2	0	0	0	0

SMILES	number of time points [1]	number of time points [2]	number of time points [3]	number of time points [4]	number of time points [5]	number of time points [6]	number of time points [7]	number of time points [8]	number of time points [9]	number of time points [10]	number of time points [11]	number of time points [12]	number of time points [13]	number of time points [14]	number of time points [15]	number of time points [16]	number of time points [17]	number of time points [18]	number of time points [19]	number of time points [20]
CCN1CCN(Cc2ccc(-c3cc4c(N[C@H](C)c5ccccc5)ncnc4[nH]3)cc2)CC1 (2.5 µM)	0	2	0	0	0	2	2	1	0	3	2	3	0	3	0	1	0	1	0	0
CNC(=O)c1cc(COc2nnc(Nc3ccc(Cl)cc3)c3ccoc23)ccn1 [Telatinib] (10 µM)	0	0	0	0	0	0	0	0	0	0	0	0	0	0	0	0	0	0	0	0
O=C1N[C@@H](Cc2c[nH]c3ccccc23)C(=O)N2CCC[C@@H]12 [Brevianamide F] (10 µM)	0	0	0	0	0	0	0	0	0	0	0	0	0	0	0	0	0	0	0	0
COc1cc2c(N3CCN(C(=O)Nc4ccc(OC(C)C)cc4)CC3)ncnc2cc1OCCCN1CCCCC1 [Tandutinib] (10 µM)	0	0	0	0	0	0	0		0	0	0	0	0	0						0
C=CC(=O)Nc1cccc(Nc2nc(Nc3ccc(N4CCN(C(C)=O)CC4)cc3OC)ncc2C(F)(F)F)c1 [Rociletinib] (10 µM)	0	0	0	0	0	0	0	0	0	0	0	1	1	4	0	0	0	1	0	0
COc1cc(/C=C/C(=O)NCC(O)c2ccc(O)cc2)ccc1O (stereo unspecified) [N-Feruloyloctopamine] (2.5 µM)	0	0	0	0	0	0	0	0	0	0	0	0	0	0	0	0	0	0	0	0
Cc1[nH]c(/C=C2\C(=O)Nc3ccc(F)cc32)c(C)c1C(=O)N[C@H]1CCN(C(=O)N(C)C)C1 [Vorolanib] (10 µM)	0	0	0	0	0	0	0	0	0	0	0	0	0	0	0	0	0	0	0	0
FC(F)(F)c1ccc(CNc2ccc(Cc3c[nH]c4ncccc34)cn2)cc1 (10 µM)	0	0	0	0	0	0	0	0	0	0	0	0	0	0	0	0	0	0	0	1
NC(=O)c1ccc(-c2nc(-c3ccc4c(c3)OCCO4)c(-c3ccccn3)[nH]2)cc1 (10 µM)	0	0	0	0	0	0	0	0	0	0	0	0	0	0	0	0	0	0	0	0
C[C@@H]1CCN(C(=O)CC#N)C[C@@H]1N(C)c1ncnc2[nH]ccc12 [Tofacitinib (citrate)] (10 µM)	0	0	0	0	0	0	0	0	0	0		0	0	0						0
CC#CC(=O)N1CC[C@@H](n2c(=O)n(-c3ccc(Oc4ccccc4)cc3)c3c(N)ncnc32)C1 [Tirabrutinib] (10 µM)	0	0	0	0	0	0	0	0	0	0	0	0	0	0	0	0	0	0	0	0
Cc1[nH]c(/C=C2\C(=O)Nc3ccccc32)c(C)c1CCC(=O)O [Orantinib] (10 µM)	0	0	0	0	0	0	0	0	0	0		0	0	0						0
Cn1nccc1Nc1nccc(-c2ccn([C@H](CO)c3ccc(Cl)c(F)c3)c(=O)c2)n1 [Ravoxertinib] (10 µM)	0	0	0	0	0	0	0	0	0	0	0	0	0	0	0	0	0	0	0	
O=C(NOCC(O)CO)c1cc(Br)c(F)c(F)c1Nc1ccc(I)cc1F (stereo unspecified) (2.5 µM)	0	0	0	0	0	0	0	0	0	0	0	0	0	0	0	0	0	0	0	0
COc1ccccc1-c1cc(Nc2cccc(CS(N)(=O)=O)c2)ncn1 (10 µM)	0	0	0	0	0	0	1	0	0	1	0	0	0	3	0	0	3	0	3	0
COc1cc2c(N3CCN(C(=O)Nc4ccc(OC(C)C)cc4)CC3)ncnc2cc1OCCCN1CCCCC1 [Tandutinib (hydrochloride)] (10 µM)	0	0	0	0	0	0	0		0	0	0	0	0	0						0

Part of the list above, with bars between the fields:
SMILES | number of time points [1] | number of time points [2] | number of time points [3] | number of time points [4] | number of time points [5] | number of time points [6] | number of time points [7] | number of time points [8] | number of time points [9] | number of time points [10] | number of time points [11] | number of time points [12] | number of time points [13] | number of time points [14] | number of time points [15] | number of time points [16] | number of time points [17] | number of time points [18] | number of time points [19] | number of time points [20]
c1cc(-c2c[nH]c3nccc(N4CCC[C@@]5(CCCCN5)C4)c23)ncn1 (10 µM) | 0 | 0 | 0 | 0 | 0 | 0 | 0 | 0 | 0 | 0 | 0 | 0 | 0 | 0 | 0 | 0 | 0 | 0 | 0 | 0
Cc1[nH]c(/C=C2\C(=O)Nc3ccccc32)c(C)c1CCC(=O)O [Orantinib] (10 µM) | 0 | 0 | 0 | 0 | 0 | 0 | 0 | 0 | 0 | 0 |  | 0 | 0 | 0 |  |  |  |  |  | 0

From the supplement of paper PMC12823440, “Inhibitors supercharge kinase turnover through native proteolytic circuits” (Nature, 2025)
